Binding data for three molecules are collected here from publication doi:10.1101/2020.01.27.921825.

The chains behind the UniProt entries cited, without tags or fusion partners. Where a name states a change or a piece, a line headed by the entry shows the natural chain unless it says otherwise. Residues count along the entry.
UniProt P20849, 24-921: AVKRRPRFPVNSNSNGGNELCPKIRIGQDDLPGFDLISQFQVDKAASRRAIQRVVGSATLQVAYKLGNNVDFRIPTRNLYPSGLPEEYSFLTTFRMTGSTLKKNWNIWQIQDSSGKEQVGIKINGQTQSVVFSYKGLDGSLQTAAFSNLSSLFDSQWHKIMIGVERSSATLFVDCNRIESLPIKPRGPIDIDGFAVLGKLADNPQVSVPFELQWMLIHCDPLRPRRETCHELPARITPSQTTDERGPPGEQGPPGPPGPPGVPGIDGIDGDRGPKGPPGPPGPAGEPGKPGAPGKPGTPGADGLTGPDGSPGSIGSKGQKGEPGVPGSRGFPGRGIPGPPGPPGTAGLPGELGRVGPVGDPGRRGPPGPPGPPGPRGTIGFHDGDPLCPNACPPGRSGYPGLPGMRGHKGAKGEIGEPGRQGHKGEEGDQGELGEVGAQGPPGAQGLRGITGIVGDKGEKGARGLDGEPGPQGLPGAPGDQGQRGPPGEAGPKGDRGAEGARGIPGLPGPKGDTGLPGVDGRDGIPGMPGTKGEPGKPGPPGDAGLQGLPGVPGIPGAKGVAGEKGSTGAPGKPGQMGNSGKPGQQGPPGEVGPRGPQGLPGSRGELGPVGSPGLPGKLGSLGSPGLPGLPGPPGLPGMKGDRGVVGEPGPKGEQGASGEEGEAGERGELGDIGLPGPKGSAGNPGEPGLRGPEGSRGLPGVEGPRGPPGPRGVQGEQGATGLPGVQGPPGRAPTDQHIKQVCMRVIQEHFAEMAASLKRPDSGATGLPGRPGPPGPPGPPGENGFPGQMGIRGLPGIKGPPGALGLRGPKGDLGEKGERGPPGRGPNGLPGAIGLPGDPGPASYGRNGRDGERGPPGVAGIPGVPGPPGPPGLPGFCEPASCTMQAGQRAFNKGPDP
UniProt P49747, 21-757: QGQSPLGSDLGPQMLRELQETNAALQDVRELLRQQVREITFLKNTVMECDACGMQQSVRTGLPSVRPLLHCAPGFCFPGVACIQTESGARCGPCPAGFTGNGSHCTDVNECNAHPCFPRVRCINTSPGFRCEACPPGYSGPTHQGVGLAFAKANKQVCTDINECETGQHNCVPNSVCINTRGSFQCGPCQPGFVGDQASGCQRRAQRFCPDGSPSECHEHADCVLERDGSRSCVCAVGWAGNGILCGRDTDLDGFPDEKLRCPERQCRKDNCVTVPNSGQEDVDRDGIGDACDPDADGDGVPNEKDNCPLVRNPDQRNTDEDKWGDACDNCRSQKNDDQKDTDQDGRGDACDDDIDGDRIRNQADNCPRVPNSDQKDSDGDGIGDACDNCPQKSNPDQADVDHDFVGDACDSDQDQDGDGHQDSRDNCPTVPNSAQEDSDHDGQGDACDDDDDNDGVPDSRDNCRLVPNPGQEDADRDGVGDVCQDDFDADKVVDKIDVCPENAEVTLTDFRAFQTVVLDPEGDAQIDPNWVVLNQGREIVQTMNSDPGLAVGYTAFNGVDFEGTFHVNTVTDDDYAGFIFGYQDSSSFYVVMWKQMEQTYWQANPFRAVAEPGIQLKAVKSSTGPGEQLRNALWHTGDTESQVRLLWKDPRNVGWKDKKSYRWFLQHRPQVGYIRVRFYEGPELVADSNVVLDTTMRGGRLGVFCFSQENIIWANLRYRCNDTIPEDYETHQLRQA

Like-named read-outs stand apart in the source and are kept apart here. No constants are given. Whether binding was seen depends on the method and setting. In cells and extracts the contact can be indirect. Some binding calls cover weakened binding; strength is not graded here. Tags and fused reporters may be left off the sequences shown.

Test in all cases: co-IP
Test [1] addresses T1, MYC-tagged mutant SMOC2 (p.Leu359Arg) (human) (UniProt Q9H3U7).
T1 sequence: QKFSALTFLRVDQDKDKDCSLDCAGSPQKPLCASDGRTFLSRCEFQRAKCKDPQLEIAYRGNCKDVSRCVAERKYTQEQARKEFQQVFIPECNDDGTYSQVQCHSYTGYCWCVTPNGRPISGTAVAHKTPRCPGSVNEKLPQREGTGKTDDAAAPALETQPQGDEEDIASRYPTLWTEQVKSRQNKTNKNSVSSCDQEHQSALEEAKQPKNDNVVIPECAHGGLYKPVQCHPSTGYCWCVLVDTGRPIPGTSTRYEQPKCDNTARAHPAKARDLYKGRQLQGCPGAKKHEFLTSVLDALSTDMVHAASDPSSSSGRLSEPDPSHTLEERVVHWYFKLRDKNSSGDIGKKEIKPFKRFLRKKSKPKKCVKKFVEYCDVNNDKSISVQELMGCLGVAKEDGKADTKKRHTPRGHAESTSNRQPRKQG

For test [2], the target named is T2, MYC-tagged wild-type SMOC2 (SPARC-related modular calcium binding 2) (human) (UniProt Q9H3U7).
T2 sequence: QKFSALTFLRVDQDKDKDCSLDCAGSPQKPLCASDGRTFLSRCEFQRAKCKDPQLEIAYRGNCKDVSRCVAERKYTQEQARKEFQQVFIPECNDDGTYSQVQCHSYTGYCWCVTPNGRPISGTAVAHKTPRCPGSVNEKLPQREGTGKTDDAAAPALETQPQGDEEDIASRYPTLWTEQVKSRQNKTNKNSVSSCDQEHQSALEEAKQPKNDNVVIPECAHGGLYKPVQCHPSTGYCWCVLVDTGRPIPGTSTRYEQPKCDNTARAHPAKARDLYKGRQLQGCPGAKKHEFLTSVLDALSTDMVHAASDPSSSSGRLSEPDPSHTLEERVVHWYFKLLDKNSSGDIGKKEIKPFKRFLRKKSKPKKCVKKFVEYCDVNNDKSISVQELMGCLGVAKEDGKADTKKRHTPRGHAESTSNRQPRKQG

The target of test [3] is T1, MYC-tagged mutant SMOC2 (p.Leu359Arg) (human). The source holds these as a separate data set.
Test [4] deals with T2, MYC-tagged wild-type SMOC2 (SPARC-related modular calcium binding 2) (human). The source holds these as a separate data set.

With “HA-tagged COL9A1 (collagen type IX alpha-1) (from UniProt P20849 24-921)”, the binding entry in test [1] is reported as “no binding”; in test [2], “binds”.

For “HA-tagged COMP (collagen oligomeric matrix protein) (from UniProt P49747 21-757)”, the binding result in test [1] and in test [2] was “binds” throughout.

B1: HA-tagged MATN3 (matrilin-3) (protein, UniProt O15232 29-486)
chain: DPVARPGFRRLETRGPGGSPGRRPSPAAPDGAPASGTSEPGRARGAGVCKSRPLDLVFIIDSSRSVRPLEFTKVKTFVSRIIDTLDIGPADTRVAVVNYASTVKIEFQLQAYTDKQSLKQAVGRITPLSTGTMSGLAIQTAMDEAFTVEAGAREPSSNIPKVAIIVTDGRPQDQVNEVAARAQASGIELYAVGVDRADMASLKMMASEPLEEHVFYVETYGVIEKLSSRFQETFCALDPCVLGTHQCQHVCISDGEGKHHCECSQGYTLNADKKTCSALDRCALNTHGCEHICVNDRSGSYHCECYEGYTLNEDRKTCSAQDKCALGTHGCQHICVNDRTGSHHCECYEGYTLNADKKTCSVRDKCALGSHGCQHICVSDGAASYHCDCYPGYTLNEDKKTCSATEEARRLVSTEDACGCEATLAFQDKVSSYLQRLNTKLDDILEKLKINEYGQIHR
Regarding B1, the binding entry in test [3] and in test [4] was “binds” each time.
